Article PMC5696369
These are yes or no findings as the source states them, for the method shown. In cells and extracts the contact can be indirect. Some binding calls cover weakened binding; strength is not graded here. Where a sequence is shown, tags or fusion partners need not be part of it.

Chains of the proteins cited; added tags and fusions are not shown.
UniProt O00471: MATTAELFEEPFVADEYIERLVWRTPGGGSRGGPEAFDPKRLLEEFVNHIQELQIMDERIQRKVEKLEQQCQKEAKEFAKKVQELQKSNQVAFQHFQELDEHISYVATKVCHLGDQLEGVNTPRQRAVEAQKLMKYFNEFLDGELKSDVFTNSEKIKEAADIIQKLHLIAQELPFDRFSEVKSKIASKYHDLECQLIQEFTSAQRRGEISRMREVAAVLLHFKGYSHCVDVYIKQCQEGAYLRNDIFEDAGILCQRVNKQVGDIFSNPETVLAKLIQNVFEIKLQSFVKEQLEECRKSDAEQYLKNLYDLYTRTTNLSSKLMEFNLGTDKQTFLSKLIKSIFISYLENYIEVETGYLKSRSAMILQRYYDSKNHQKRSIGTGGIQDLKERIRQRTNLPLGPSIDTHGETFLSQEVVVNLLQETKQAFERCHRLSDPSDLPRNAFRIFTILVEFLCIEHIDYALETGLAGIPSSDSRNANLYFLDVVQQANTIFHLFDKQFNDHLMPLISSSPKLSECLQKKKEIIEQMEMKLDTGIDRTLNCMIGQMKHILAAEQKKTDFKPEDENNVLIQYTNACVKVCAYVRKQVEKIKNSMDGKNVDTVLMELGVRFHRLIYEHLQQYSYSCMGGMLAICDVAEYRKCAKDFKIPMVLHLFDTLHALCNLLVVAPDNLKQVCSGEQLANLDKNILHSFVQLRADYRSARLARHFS
UniProt Q8TAG9: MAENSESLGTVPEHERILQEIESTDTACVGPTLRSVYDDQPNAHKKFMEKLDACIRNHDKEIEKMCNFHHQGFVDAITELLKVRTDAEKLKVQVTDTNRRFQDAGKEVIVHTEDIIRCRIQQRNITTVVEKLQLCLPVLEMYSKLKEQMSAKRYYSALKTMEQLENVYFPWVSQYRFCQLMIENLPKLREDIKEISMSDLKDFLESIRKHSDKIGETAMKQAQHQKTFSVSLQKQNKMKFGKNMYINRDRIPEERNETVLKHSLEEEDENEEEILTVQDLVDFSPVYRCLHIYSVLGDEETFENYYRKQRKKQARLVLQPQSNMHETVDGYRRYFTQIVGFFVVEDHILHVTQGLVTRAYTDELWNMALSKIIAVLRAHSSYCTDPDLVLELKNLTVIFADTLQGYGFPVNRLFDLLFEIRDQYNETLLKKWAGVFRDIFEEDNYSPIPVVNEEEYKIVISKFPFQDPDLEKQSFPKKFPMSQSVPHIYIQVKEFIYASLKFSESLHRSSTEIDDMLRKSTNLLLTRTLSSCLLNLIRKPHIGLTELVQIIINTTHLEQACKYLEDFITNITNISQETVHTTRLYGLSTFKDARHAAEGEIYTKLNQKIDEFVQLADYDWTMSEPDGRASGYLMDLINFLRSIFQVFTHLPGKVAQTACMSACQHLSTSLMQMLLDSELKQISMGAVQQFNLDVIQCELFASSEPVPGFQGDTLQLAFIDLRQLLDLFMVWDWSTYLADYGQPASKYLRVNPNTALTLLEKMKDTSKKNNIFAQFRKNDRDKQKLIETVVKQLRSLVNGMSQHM
UniProt Q9UPT5: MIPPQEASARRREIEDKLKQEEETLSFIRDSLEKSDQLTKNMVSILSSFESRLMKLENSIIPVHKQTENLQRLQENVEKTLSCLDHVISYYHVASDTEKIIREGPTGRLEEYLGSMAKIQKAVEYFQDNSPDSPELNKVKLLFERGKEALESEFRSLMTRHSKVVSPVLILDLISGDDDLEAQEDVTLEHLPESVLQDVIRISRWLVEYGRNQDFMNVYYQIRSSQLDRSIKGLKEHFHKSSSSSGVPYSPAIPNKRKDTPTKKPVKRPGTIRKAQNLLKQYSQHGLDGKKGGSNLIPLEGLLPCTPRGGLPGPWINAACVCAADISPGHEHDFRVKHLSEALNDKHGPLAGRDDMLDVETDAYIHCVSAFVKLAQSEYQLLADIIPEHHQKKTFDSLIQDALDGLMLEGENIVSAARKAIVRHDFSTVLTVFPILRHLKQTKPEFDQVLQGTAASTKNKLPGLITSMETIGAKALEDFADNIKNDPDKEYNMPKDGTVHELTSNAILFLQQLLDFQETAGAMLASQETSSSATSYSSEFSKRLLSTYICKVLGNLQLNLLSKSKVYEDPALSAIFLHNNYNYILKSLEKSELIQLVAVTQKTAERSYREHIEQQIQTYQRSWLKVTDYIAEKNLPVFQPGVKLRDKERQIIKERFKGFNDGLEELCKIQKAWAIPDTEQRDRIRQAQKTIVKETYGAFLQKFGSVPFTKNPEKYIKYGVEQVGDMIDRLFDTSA
UniProt Q8IYI6: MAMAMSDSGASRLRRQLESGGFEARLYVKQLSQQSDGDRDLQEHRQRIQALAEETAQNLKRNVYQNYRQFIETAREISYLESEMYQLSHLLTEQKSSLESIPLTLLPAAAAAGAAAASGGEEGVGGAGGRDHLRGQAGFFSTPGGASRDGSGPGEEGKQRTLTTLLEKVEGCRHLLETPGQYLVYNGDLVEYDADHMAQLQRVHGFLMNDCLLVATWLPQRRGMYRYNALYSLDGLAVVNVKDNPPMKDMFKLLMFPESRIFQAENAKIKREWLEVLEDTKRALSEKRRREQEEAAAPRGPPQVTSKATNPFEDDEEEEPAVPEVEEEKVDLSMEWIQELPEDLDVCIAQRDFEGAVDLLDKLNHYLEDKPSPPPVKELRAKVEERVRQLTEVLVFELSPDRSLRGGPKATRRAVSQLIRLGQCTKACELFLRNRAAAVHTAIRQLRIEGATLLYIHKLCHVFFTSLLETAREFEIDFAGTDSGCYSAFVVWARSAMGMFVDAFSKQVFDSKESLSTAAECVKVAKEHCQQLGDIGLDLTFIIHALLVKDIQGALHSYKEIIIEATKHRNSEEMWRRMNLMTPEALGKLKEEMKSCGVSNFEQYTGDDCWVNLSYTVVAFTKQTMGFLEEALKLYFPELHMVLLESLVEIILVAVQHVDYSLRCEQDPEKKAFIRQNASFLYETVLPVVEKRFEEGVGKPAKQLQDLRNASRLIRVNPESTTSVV

What was measured:
[1] = target: T1, FLAG-tagged DPPA3 1-60 aa-mVenus (mouse) (UniProt Q8QZY3); assay: co-IP; anti-FLAG immunoprecipitation from lysates of HEK 293T cells transfected separately with the FLAG-tagged DPPA3-mVenus constructs; immunoblot for endogenous proteins
T1 sequence: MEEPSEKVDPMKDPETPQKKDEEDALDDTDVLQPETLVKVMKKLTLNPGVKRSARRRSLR

[2] = target: T2, FLAG-tagged DPPA3 WT (1-150 aa)-mVenus (mouse) (UniProt Q8QZY3); assay: as above
T2 sequence: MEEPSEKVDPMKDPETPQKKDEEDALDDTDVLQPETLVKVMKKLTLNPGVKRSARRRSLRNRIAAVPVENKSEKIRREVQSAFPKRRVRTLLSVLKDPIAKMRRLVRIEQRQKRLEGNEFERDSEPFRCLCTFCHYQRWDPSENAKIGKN

Row | Substance | binding [1] | binding [2]
1 | EXOC5 (from UniProt O00471 1-708) | binds | binds
2 | EXOC6 (from UniProt Q8TAG9 1-804) | binds | binds
3 | EXOC7 (from UniProt Q9UPT5 1-735) | binds | binds
4 | EXOC8 (from UniProt Q8IYI6 1-725) | binds | binds
